Measured values as given in patent publication US9840640B2, “Article having antifouling properties for aquatic and particularly sea use” (priority 2008, dated 2017).

Key:
[1] = Catalyst activity test: crosslinking of α,ω-dihydroxylated oil 48V100 with ethyl silicate; conditions: for Hard/liquid after 24 h: 1.24 mmol catalyst
[2] = Tack Free Time and pot-life of topcoat formulations; conditions: 3.34 mmol catalyst in topcoat Formulation 1 base
[3] = text summary of comparative test 2

In the case of `CCOC(=O)C=C(C)[O][Fe]([O]C(C)=CC(=O)OCC)[O]C(C)=CC(=O)OCC` [Catalyst (2), [Fe(EAA)3]], the “Hard/liquid after 24 h” value [1] is reported as “hard”.
For `C/C(=C/C(=O)OCC(C)C)[CH2][Fe]([O]/C(C)=C/C(=O)OCC(C)C)[O]/C(C)=C/C(=O)OCC(C)C` [Catalyst (4), [Fe(iBu-AA)3]], the Pot-life [2] was 45 min and the “Tack Free Time (time necessary to obtain a dry surface)” value [2] was 45 min.
With `C/C(=C/C(=O)OC(C)(C)C)[CH2][Fe]([O]/C(C)=C/C(=O)OC(C)(C)C)[O]/C(C)=C/C(=O)OC(C)(C)C` [Catalyst (5), [Fe(tBu-AA)3]] the Pot-life [2] was 20 min and the “Tack Free Time (time necessary to obtain a dry surface)” value [2] was 10 min.
For `CCCCC(CC)C(=O)[O-].CCCCC(CC)C(=O)[O-].CCOC(=O)C=C(C)[O-].[Fe+3]` (centres unmarked) [Catalyst (7), [Fe(EAA) (2-ethylhexanoato)2]], the “Hard/liquid after 24 h” value [1] was “hard”.
In the case of `CC(=O)/C=C(/C)[O-].CC(=O)/C=C(/C)[O-].CC(=O)/C=C(/C)[O-].[Fe+3]` [Comparative 2, Fe(acac)3], the “Hard/liquid after 24 h” value [1] is reported as “hard”, the crosslinking time [1, 3] is reported as “more than 7 hours” and the tack time [1, 3] is reported as “more than 6 hours”.
In the case of “[Fe(EAA)2 (2-ethylhexanoato)] [Catalyst (6)]”, the “Hard/liquid after 24 h” value [1] is reported as “hard”.
With “tetrabutyldistannoxane dilaurate [Comparative 1]” the “Hard/liquid after 24 h” value [1] was “hard”.
